# Reference: PubChem BioAssay AID758 (NMMLSC, 2007)
# Screen size: about 190,000 compounds; about 110 (0.058%) were called active. The source calls these results inconclusive, neither active nor inactive.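 The calls were made as follows: active = fluorescent GTP binding to Rab7 beads changed by at least 20 points from the 100% baseline, either direction, mostly lower; inconclusive = compound itself probably fluorescent, or too few beads counted; inactive = the rest.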
# System: Rab7 GTPase wild type (dog), Bodipy-FL-GTP binding
# Test: modulators of GTP binding to Rab7, primary screen, biochemical, wildtype, multiplex bead flow cytometry (AID 758);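 also: median green fluorescence of bound Bodipy-FL-GTP per Rab7 bead population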
# Settings: GST-Rab7 beads, fluorescent GTP binding, at 10 µM, actives lie on both sides, untreated = 100%, excess cold GTP = 0%
row,SMILES,GTP binding activity (percent of control)
1,CCC(CO)(C(=O)OC1CN2CCC1CC2)c1ccccc1 (stereo unspecified),inconclusive: 93%
